These are yes or no findings as the source states them, for the method shown. In cells and extracts the contact can be indirect. Binding can be weak; no strength is given.
How the values were obtained:
[1] = biological target: p53 protein of 5637 cells (mutated TP53) (human (endogenous in 5637)) (UniProt P04637); test: co-IP; p53 immunoprecipitated from T24 and 5637 cell lysates (IP lysis buffer with protease inhibitors, co-IP kit); immunoblot of input and IP samples; endogenous proteins
[2] = biological target: p53 protein of T24 cells (mutated TP53) (human (endogenous in T24)) (UniProt P04637); test: as above

By UniProt entry, the sequences of proteins in these tests, tags left out.
UniProt Q9P1Y6: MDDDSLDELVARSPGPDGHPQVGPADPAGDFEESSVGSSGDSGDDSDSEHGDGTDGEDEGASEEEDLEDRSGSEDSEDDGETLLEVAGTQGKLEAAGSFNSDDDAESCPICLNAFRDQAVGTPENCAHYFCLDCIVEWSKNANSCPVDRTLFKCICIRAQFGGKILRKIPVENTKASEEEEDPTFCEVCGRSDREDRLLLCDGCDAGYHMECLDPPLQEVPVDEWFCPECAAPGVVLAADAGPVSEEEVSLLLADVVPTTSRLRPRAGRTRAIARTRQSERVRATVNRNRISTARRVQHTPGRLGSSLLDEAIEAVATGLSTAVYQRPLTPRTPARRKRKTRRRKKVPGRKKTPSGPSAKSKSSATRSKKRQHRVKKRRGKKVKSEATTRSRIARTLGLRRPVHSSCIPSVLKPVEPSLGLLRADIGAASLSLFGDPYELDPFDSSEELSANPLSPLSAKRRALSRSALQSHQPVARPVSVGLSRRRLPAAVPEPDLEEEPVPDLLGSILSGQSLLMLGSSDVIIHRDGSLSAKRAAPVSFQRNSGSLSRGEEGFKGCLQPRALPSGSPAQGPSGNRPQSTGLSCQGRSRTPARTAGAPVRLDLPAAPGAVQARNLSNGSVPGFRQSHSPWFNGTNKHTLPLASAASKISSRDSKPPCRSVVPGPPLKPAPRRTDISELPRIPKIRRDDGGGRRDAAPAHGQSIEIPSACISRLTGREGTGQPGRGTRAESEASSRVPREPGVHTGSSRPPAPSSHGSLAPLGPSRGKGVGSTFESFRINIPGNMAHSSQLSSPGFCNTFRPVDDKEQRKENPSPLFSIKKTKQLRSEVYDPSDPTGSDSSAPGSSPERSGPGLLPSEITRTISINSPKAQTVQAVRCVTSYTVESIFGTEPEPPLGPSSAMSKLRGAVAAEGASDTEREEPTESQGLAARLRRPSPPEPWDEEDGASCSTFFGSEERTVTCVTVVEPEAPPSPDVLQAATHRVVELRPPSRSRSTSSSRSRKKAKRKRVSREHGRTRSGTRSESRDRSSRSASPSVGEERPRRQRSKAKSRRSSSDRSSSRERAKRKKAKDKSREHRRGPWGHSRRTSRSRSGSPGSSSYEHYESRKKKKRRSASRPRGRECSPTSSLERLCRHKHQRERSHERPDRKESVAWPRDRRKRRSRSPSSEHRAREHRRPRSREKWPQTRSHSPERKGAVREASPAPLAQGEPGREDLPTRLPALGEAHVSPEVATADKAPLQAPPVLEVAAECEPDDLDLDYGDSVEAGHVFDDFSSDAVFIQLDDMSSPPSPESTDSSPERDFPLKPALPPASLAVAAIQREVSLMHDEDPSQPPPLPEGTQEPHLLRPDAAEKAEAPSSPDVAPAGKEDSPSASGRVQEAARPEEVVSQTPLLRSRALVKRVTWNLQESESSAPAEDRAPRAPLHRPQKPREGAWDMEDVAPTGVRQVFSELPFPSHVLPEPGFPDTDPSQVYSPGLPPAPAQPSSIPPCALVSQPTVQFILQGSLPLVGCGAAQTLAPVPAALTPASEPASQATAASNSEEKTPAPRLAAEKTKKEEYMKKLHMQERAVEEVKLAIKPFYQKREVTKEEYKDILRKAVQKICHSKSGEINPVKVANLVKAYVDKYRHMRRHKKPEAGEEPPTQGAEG

## PHRF1 (PHD and ring finger domain 1) (from UniProt Q9P1Y6 1-1649)
[1]
  binding: binds
[2]
  binding: binds

Source: paper PMC12850319
